Consider one substance from paper PMC3307762.

For the assay, the target named is T1, HA-necdin (in PC12 cells) (mouse) (UniProt P25233).
T1 sequence: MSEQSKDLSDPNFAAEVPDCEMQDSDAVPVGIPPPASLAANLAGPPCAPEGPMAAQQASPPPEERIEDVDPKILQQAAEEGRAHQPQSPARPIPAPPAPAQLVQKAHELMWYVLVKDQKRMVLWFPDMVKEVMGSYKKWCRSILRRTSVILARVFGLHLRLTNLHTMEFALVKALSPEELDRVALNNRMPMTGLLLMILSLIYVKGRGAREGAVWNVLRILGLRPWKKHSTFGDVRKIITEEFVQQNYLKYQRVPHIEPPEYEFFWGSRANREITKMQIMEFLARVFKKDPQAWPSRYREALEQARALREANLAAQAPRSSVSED
Briefly: co-IP; anti-HA i.p. of HA-necdin from transfected PC12 cells, 1 mg total lysate, Western blot for transportin-1; cells with or without 150 ng/ml NGF for 2 hr in serum-free DMEM. Background: In western blotting, separated proteins are transferred to a membrane and probed.

No constants are given. Whether binding was seen depends on the method and setting. In cells and extracts the contact can be indirect. A result given as binding can be weak or reduced; the word gives no strength. Where a sequence is shown, tags or fusion partners need not be part of it.

Regarding “transportin 1 (in PC12 cells) (rat (endogenous in PC12))”, the binding entry is “binds”.
